These are yes or no findings as the source states them, for the method shown. In cells and extracts the contact can be indirect. Some binding calls cover weakened binding; strength is not graded here. One block for each molecule: values may come before it.
What was measured:
[1] = biological target: eYFP-ATZ (enhanced YFP-tagged α1-antitrypsin Z, E342K), expressed in K42 mouse embryonic fibroblasts (human) (UniProt P01009); assay: co-IP; K42 cells (CRT-/- or CRT WT) transfected with eYFP-AAT or eYFP-ATZ; cross-linked with 2 mM DTBP; 1% digitonin lysis; precipitation with anti-AAT polyclonal antibody and Protein G Sepharose; immunoblot
[2] = biological target: eYFP-ATZ (enhanced YFP-tagged α1-antitrypsin Z, E342K), expressed in Huh7.5 cells (human) (UniProt P01009); assay: co-IP; Huh7.5 CRT KO and WT cells transfected with eYFP-ATZ; cross-linked with 2 mM DTBP; 1% Triton X-100 lysis; precipitation with anti-AAT antibody and Protein G Sepharose or with GFP-Trap agarose; immunoblot

By UniProt entry, the sequences of proteins in these tests, tags left out. Where a name states a change or a piece, a line headed by the entry shows the natural chain unless it says otherwise. Chains listed by the source or under a name are the forms on record and can include a tag or linker. Residues count along the entry.
eYFP-ATZ (enhanced YFP-tagged α1-antitrypsin Z, E342K), expressed in Huh7.5 cells (P01009, form named): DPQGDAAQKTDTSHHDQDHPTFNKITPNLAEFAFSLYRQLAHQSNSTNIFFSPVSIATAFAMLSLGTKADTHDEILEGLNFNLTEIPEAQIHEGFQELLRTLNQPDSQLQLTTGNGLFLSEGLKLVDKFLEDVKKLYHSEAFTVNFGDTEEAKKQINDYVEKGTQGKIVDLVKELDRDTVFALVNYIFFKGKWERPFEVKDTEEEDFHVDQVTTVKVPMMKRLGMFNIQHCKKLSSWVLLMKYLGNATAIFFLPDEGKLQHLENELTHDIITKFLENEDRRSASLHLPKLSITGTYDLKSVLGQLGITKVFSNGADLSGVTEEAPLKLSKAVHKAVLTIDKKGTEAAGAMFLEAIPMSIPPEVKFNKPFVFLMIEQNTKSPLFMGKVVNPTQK
UniProt P20029, residues 20-655: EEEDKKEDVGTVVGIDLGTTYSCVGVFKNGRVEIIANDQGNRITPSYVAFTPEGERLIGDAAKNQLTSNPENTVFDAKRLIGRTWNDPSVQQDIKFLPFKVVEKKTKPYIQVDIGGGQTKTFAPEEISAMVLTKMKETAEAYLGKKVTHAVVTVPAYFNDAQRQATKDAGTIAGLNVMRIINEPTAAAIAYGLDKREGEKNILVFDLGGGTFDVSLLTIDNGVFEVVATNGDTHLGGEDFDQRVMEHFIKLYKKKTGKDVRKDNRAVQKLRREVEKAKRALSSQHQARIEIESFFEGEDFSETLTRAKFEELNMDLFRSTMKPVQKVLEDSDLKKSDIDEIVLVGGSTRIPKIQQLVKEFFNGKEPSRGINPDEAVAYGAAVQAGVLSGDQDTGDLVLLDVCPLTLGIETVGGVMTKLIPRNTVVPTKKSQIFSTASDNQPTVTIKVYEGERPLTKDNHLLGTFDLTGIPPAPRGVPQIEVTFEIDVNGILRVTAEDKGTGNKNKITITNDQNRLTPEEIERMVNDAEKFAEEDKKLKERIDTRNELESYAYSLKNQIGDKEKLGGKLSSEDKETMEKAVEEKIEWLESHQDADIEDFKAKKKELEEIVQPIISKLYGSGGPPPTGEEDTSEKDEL
UniProt P11021, residues 19-654: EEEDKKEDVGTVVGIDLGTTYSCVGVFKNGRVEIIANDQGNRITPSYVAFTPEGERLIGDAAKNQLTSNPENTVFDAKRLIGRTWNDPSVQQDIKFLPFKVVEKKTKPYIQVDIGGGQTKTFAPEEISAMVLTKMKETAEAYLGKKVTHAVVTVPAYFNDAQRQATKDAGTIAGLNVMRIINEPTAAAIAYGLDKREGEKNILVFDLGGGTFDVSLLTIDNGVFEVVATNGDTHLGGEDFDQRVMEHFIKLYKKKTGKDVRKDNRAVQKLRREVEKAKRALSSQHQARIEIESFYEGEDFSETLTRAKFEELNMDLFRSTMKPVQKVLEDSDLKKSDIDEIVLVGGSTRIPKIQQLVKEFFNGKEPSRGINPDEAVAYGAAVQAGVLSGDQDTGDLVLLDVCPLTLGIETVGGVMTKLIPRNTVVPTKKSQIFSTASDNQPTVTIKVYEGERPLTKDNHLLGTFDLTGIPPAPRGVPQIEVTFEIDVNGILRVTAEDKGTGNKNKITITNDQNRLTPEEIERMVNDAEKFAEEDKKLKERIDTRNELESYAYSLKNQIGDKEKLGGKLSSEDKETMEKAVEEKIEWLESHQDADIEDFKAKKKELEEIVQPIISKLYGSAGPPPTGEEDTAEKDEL

binding [1]: binds
Molecule: binding immunoglobulin protein (BiP), endogenous in K42 mouse embryonic fibroblasts (from UniProt P20029 20-655)

binding [2]: binds
Molecule: binding immunoglobulin protein (BiP, HSPA5), endogenous in Huh7.5 cells (from UniProt P11021 19-654)

binding [2]: binds
B1: calnexin (CNX), endogenous in Huh7.5 cells (protein, UniProt P27824 21-592)
chain: HDGHDDDVIDIEDDLDDVIEEVEDSKPDTTAPPSSPKVTYKAPVPTGEVYFADSFDRGTLSGWILSKAKKDDTDDEIAKYDGKWEVEEMKESKLPGDKGLVLMSRAKHHAISAKLNKPFLFDTKPLIVQYEVNFQNGIECGGAYVKLLSKTPELNLDQFHDKTPYTIMFGPDKCGEDYKLHFIFRHKNPKTGIYEEKHAKRPDADLKTYFTDKKTHLYTLILNPDNSFEILVDQSVVNSGNLLNDMTPPVNPSREIEDPEDRKPEDWDERPKIPDPEAVKPDDWDEDAPAKIPDEEATKPEGWLDDEPEYVPDPDAEKPEDWDEDMDGEWEAPQIANPRCESAPGCGVWQRPVIDNPNYKGKWKPPMIDNPSYQGIWKPRKIPNPDFFEDLEPFRMTPFSAIGLELWSMTSDIFFDNFIICADRRIVDDWANDGWGLKKAADGAAEPGVVGQMIEAAEERPWLWVVYILTVALPVFLVILFCCSGKKQTSGMEYKKTDAPQPDVKEEEEEKEEEKDKGDEEEEGEEKLEEKQKSDAEEDGGTVSQEEEDRKPKAEEDEILNRSPRNRKPRRE

Reference: article PMC7864070
